Results reported in patent US6407062.
No constants are given. Whether binding was seen depends on the method and setting. In cells and extracts the contact can be indirect. Some binding calls cover weakened binding; strength is not graded here.

Protein sequences, listed by entry. Tags and fused reporters are not part of them. Lines headed by an entry give the natural chain unless they say otherwise; changes in a name come on top.
UniProt P23804: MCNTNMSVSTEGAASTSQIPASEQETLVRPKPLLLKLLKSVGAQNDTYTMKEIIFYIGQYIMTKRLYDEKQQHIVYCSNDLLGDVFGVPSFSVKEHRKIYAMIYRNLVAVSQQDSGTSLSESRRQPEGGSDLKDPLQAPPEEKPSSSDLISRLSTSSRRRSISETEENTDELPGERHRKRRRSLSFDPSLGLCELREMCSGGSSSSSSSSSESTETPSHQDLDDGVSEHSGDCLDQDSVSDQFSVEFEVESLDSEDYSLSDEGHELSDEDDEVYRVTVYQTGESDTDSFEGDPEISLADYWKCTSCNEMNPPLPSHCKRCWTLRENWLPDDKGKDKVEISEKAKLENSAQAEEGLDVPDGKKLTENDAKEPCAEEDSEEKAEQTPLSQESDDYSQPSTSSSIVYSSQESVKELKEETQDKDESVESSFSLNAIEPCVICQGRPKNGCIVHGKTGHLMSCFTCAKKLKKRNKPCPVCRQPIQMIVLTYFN

How the values were obtained:
[1] = molecular target: Mdm2 (Murine Double Minute 2, full-length) (mouse) (UniProt P23804); experiment: co-immunoprecipitation
[2] = molecular target: Mdm2 (Murine Double Minute 2, full-length) (mouse) (UniProt P23804); experiment: co-immunoprecipitation from co-infected Sf9 cells
[3] = molecular target: Mdm2 (Murine Double Minute 2, full-length) (mouse) (UniProt P23804); experiment: co-immunoprecipitation from Sf9 cells co-infected with baculoviruses
[4] = molecular target: Mdm2 (Murine Double Minute 2, full-length) (mouse) (UniProt P23804); experiment: co-immunoprecipitation from Sf9 cells co-infected with ARF, mdm2 and p53 (22/23/281)

Measured: binding

B1: p19^ARF expressed in Sf9 cells from a baculovirus vector (Example 9) (protein, not shown: small tags and cut ends)
chain: MGRRFLVTVRIQRAGRPLQERVFLVKFVRSRRPRTASCALAFVNMLLRLERILRRGPHRNPGPGDDDGQRSRSSSSAQLRCRFELRGPHYLLPPGARRSAGRLPGHAGGAARVRGSAGCARCLGSPAARLGPRAGTSRHRAIFAFRWVLFVFRWVVFVYRWERRPDRRA
binds: all assays above
